# Test results: PubChem BioAssay AID445 (National Center for Advancing Translational Sciences (NCATS), 2006)
# The list shows a part of the results. The main result of the screen is listed elsewhere. These columns were measured beside it and carry no call. Most of these compounds were active or inconclusive in the main read-out, so they are no random draw. Potencies come from curve fits of mixed quality, noted in brackets.
# Assay: IkB Signaling
# Conditions: ABC-DLBCL IkBa-CBG/CBR dual luciferase ratio (green luciferase fused to IkBa over red control in OCI-Ly3 lymphoma cells), 4 h
# Outline: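 Curves were fitted separately to fusion (green), unfused (red) and ratio luminescence, then classed by r2, magnitude and activity. Cells: OCI-Ly3, 4 h compound plus doxycycline at 37C; 10 uM MG-132 defined full response.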
# [1] = measured here: control luc red channel unless noted
compound,measurement,setting,value
COc1ccc(OC)c(CCNc2nc3ccccc3c3nc(-c4cccnc4)nn23)c1,AC50,[1],"0.0794 µM [rising, full curve, poor fit]"
COc1ccc2[nH]c(=O)c(CN(Cc3cccs3)Cc3nnnn3C(C)(C)C)cc2c1,AC50,[1],"20 µM [falling, partial curve]"
Cc1ccc2[nH]c(CSc3nnc(NC(=O)c4ccc(Cl)cc4)s3)cc(=O)c2c1,AC50,[1],"0.398 µM [rising, partial curve, poor fit]"
Cc1nn(CCCC(=O)N2CCc3ccccc3C2)c(=O)c2cc3sccc3n12,AC50,[1],"25.1 µM [falling, partial curve]"
Nc1ncn([C@@H]2O[C@@H](CO)[C@@H](O)[C@H]2O)c(=O)n1,AC50,[1],"12.6 µM [falling, partial curve, poor fit] [measured here: IkB-luc green channel]"
Cc1ccc2nc(-c3ccccc3)cn2c1,AC50,[1],"12.6 µM [falling, partial curve]"
CCOc1ccc(C(=O)c2cn(CC(=O)Nc3ccc(Cl)cc3)c3cc4c(cc3c2=O)OCCO4)cc1,AC50,[1],"7.94 µM [falling, partial curve]"
COc1cc(NC(=O)c2cc(S(=O)(=O)N3CCc4ccccc43)cn2C)cc(OC)c1OC,AC50,[1],"10 µM [falling, partial curve]"
Cc1ccc(C)c(CN2C(=O)c3ccccc3S(=O)(=O)c3ccc(C(=O)N4CCCCC4)cc32)c1,AC50,[1],"20 µM [falling, single point]"
Cc1ccc(S(=O)(=O)C(C#N)c2nc3ccccc3nc2N2CCCC2)cc1 (stereo unspecified),AC50,[1],"10 µM [falling, partial curve]"
CC(=O)c1cccc(NC(=O)c2noc3c2CCCC3)c1,AC50,[1],"0.158 µM [rising, full curve, poor fit]"
CCc1ccccc1N(C)C(=O)c1cc2c(=O)oc3ccccc3c2s1,AC50,[1],"39.8 µM [falling, single point]"
CC(C)CC(=O)Nc1c(C(=O)N2CCN(c3ccccc3)CC2)oc2ccccc12,AC50,[1],"31.6 µM [falling, single point]"
Cc1cc2cc(CNC(=O)Nc3ccccc3)ccc2n1C,AC50,[1],"15.8 µM [falling, partial curve]"
Cc1ccc(-n2nnnc2SC(C)C(=O)Nc2ccc(Cl)cn2)cc1 (stereo unspecified),AC50,[1],"31.6 µM [falling, single point]"
COc1cc2c(=O)n(CCc3ccccc3)c(=O)n(CC(=O)Nc3ccccc3)c2cc1OC,AC50,[1],"20 µM [falling, partial curve, poor fit]"
COc1cc(NC(=O)CSc2ncc(S(=O)(=O)c3ccc(Br)cc3)c(=O)[nH]2)cc(OC)c1,AC50,[1],"15.8 µM [falling, partial curve]"
CC1(COc2ccc(C[C@H]3SC(=O)NC3=O)cc2)CCCCC1,AC50,[1],"39.8 µM [falling, single point]"
COCCCNC(=O)c1oc2ccc(S(=O)(=O)N(C)C3CCCCC3)cc2c1C,AC50,[1],"15.8 µM [falling, partial curve]"
Fc1ccc(-c2noc3ncnc(NC4CCCCC4)c23)cc1,AC50,[1],"7.94 µM [rising, partial curve]"
CCN(CC)S(=O)(=O)c1ccc2oc(C(=O)N(C)Cc3ccccc3)c(C)c2c1,AC50,[1],"20 µM [falling, partial curve]"
CCCCOc1cccc(C(=O)N(Cc2sccc2C)C2CCS(=O)(=O)C2)c1 (stereo unspecified),AC50,[1],"31.6 µM [falling, single point]"
COc1cc(C2CC(=O)Nc3cc4c(cc32)OCCO4)cc(Br)c1OC (stereo unspecified),AC50,measured here: IkB-luc green channel,"2 µM [rising, partial curve]"
same,AC50,measured here: control luc red channel,"0.794 µM [rising, partial curve]"
COc1ccc(Cn2c(=O)c3oc4ccccc4c3n(Cc3ccc(F)cc3)c2=O)cc1,AC50,[1],"0.398 µM [falling, partial curve]"
Cc1cccc(N2CCN(C(=O)CCCCn3c(=O)[nH]c4ccsc4c3=O)CC2)c1C,AC50,[1],"15.8 µM [falling, partial curve]"
COc1ccc(CNC(=O)c2ccc(CS(=O)(=O)c3ccccc3OC)o2)cc1,AC50,[1],"12.6 µM [falling, partial curve]"
Cc1ccc(Nc2ncccc2C(=O)O)cc1C,AC50,[1],"39.8 µM [falling, single point]"
CCCC(=O)Nc1ccc(-c2nc3cc(C)ccc3o2)cc1,AC50,[1],"15.8 µM [falling, partial curve]"
O=C1CCSC2(C(=O)N(Cc3ccc(F)cc3)c3ccccc32)N1c1ccc(F)c(F)c1 (stereo unspecified),AC50,[1],"31.6 µM [falling, partial curve, poor fit]"
CCc1ccc(-c2nc(CS(=O)CC(=O)NCCc3ccc(Cl)cc3)c(C)o2)cc1 (stereo unspecified),AC50,[1],"20 µM [falling, partial curve]"
CCOc1ccc2oc(=O)cc(CN3CCN(C(=O)c4ccc(F)cc4)CC3)c2c1,AC50,[1],"39.8 µM [falling, single point]"
Cc1c(C(=O)Nc2cccc(Cl)c2)oc2ccc(S(=O)(=O)N(C)C3CCCCC3)cc12,AC50,[1],"10 µM [falling, partial curve]"
O=C1c2ccccc2C(Nc2cccc(C(F)(F)F)c2)N1Cc1ccco1 (stereo unspecified),AC50,[1],"20 µM [falling, partial curve]"
COC(=O)CCCCCNc1ccc(C(=O)OC)cc1N,AC50,[1],"7.94 µM [falling, partial curve]"
CCC(Sc1nncn2c1cc1oc(C)cc12)C(=O)Nc1ccc(F)cc1 (stereo unspecified),AC50,[1],"7.94 µM [falling, partial curve]"
COc1ccc(CCNC(=O)C(=O)NCC(c2ccco2)S(=O)(=O)c2ccc(F)cc2)cc1 (stereo unspecified),AC50,[1],"31.6 µM [falling, single point]"
O=C(Cn1[nH]c(=O)c2ccccc2c1=O)Nc1ccc2c(c1)CCC2,AC50,[1],"3.16 µM [falling, single point]"
CCOc1ccccc1NC(=O)CCn1nc(C)c(S(=O)(=O)N2CCCCC2)c1C,AC50,[1],"25.1 µM [falling, single point]"
O=C(Cn1ncc2c3ccccc3n(Cc3cccc(Cl)c3)c2c1=O)NC1CCCCCC1,AC50,[1],"25.1 µM [falling, single point]"
CCCc1cc(C(=O)Nc2nccs2)cs1,AC50,[1],"15.8 µM [falling, single point]"

# Three entries drawn at random from those above:
compound,measurement,setting,value
Cc1cc2cc(CNC(=O)Nc3ccccc3)ccc2n1C,AC50,[1],"15.8 µM [falling, partial curve]"
CCC(Sc1nncn2c1cc1oc(C)cc12)C(=O)Nc1ccc(F)cc1 (stereo unspecified),AC50,[1],"7.94 µM [falling, partial curve]"
COc1cc(C2CC(=O)Nc3cc4c(cc32)OCCO4)cc(Br)c1OC (stereo unspecified),AC50,measured here: control luc red channel,"0.794 µM [rising, partial curve]"
